The target of this test is growth hormone secretagogues receptor (GHSR) as tested with RNF11 in Figure S1 (not stated (human or mouse cDNA cloned)) (UniProt Q99P50). As to the kind of experiment: split reporter; YFP-BiFc with full-length genes in transfected HEK293 cells; YFP-fluorescent cells counted by flow cytometry (FACS Canto II), 50,000 cells per sample; values of both tag orientations (YFP1/YFP2) combined. On the technique in general: In flow cytometry, cells or beads pass a laser one at a time.

Sequences of proteins named here, by UniProt entry; tags and fusion partners are left off. A change or cut given only in a name is not applied to a line headed by its entry.
UniProt Q99P50: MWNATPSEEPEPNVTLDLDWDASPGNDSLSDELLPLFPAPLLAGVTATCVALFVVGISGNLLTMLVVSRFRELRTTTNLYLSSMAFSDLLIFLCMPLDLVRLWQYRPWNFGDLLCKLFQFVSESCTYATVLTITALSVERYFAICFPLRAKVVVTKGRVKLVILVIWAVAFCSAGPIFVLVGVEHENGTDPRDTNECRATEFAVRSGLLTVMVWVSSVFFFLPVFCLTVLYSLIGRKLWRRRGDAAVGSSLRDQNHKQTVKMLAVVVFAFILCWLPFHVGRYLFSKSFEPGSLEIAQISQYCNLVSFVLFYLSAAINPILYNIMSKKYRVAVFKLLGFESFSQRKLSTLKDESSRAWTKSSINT

Results are given in words; binding and its absence hold for the method and conditions named. Binding seen in cells or lysates may run through a third protein. Binding can be weak; no strength is given. Sequences can lack the tags named with a protein.

B1: ring finger protein 11 (RNF11), murine, full length, fused to a YFP fragment (protein, UniProt Q9QYK7 1-154)
chain: MGNCLKSPTSDDISLLHESQSDRASFGEGTEPDQEPPPPYQEQVPVPIYHPTPSQTRLATQLTEEEQIRIAQRIGLIQHLPKGVYDPGRDGSEKKIRECVICMMDFVYGDPIRFLPCMHIYHLDCIDDWLMRSFTCPSCMEPVDAALLSSYETN
Regarding B1, the binding entry is “binds”.

These data come from publication PMC4976663.
